Assay results: publication PMC8450092

Chains of the proteins cited; added tags and fusions are not shown. Lines headed by an entry give the natural chain unless they say otherwise; changes in a name come on top.
UniProt A4I7K4: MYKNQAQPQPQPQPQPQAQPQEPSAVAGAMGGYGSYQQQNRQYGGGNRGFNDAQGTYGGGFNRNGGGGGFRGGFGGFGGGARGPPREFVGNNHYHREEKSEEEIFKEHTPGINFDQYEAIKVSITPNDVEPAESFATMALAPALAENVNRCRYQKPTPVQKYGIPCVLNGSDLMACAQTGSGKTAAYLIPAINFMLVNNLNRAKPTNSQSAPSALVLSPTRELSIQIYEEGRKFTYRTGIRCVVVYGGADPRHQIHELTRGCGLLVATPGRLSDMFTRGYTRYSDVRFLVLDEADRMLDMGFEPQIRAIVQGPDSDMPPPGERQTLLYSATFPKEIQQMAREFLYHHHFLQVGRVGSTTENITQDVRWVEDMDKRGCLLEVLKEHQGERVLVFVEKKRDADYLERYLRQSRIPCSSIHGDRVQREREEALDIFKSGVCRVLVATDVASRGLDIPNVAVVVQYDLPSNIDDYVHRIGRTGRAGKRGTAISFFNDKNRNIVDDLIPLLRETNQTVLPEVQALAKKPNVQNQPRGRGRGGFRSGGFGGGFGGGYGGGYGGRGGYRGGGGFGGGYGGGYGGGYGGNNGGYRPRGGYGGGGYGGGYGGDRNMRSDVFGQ
UniProt A4HZ70: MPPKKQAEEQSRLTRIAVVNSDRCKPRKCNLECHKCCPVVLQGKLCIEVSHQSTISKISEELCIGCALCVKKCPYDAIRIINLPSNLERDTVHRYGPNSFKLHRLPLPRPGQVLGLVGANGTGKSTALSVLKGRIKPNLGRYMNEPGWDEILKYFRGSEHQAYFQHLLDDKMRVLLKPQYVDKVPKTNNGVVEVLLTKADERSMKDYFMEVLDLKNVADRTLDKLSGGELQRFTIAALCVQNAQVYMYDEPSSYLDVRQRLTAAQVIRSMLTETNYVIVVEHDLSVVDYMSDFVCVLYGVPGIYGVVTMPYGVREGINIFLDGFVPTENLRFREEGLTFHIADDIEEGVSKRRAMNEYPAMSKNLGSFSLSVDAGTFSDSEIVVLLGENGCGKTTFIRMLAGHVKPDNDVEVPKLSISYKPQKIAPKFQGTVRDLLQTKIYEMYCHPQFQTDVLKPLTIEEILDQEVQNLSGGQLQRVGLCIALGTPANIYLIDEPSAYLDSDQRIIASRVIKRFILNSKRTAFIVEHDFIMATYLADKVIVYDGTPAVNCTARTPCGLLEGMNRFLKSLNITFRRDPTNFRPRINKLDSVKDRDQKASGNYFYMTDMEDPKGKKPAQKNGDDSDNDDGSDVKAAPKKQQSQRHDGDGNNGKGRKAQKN
UniProt A4I2W3: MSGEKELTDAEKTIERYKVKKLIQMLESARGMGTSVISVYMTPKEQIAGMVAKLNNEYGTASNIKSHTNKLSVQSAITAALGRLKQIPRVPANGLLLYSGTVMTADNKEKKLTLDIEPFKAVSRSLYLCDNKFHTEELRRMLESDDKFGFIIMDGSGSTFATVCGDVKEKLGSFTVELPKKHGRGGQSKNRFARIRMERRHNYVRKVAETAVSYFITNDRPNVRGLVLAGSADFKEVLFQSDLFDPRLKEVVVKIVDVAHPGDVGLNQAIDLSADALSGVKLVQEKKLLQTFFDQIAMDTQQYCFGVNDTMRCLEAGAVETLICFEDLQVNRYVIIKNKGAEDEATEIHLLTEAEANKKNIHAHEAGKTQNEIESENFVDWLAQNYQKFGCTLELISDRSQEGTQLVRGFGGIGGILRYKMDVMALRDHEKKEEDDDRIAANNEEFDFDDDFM
UniProt A4HV24: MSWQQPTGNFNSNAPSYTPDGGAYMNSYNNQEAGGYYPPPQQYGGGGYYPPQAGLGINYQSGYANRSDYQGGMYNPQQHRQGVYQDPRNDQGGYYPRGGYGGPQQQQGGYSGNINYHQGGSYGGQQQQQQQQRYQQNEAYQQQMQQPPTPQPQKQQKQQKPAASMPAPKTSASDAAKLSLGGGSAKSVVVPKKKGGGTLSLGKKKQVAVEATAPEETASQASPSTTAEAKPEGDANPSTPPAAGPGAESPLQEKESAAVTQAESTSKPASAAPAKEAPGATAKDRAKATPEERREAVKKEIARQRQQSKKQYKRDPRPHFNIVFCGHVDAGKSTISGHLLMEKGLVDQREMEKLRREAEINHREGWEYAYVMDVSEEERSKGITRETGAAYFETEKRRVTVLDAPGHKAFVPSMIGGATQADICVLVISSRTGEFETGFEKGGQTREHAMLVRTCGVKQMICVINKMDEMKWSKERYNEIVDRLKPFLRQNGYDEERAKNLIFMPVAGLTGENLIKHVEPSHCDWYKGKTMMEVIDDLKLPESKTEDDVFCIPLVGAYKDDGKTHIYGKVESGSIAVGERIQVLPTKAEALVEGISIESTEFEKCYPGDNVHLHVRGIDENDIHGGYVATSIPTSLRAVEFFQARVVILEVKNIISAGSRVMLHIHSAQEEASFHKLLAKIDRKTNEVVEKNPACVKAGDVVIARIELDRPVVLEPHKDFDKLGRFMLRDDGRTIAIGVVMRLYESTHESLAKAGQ

The substances below were run against Leishmania infantum DDX3 tagged at the C-terminus with an HA epitope (LiDDX3-HA) (Leishmania infantum) (UniProt A4I7K4) (assay: affinity purification with mass spectrometry; L. infantum promastigotes expressing the HA-tagged protein of interest were lysed and mixed with Pierce anti-HA magnetic beads; bound proteins analysed by LC-MS/MS (directly or after SDS-PAGE, excision and trypsin digestion)).

binding, binds:
Leishmania infantum Rli1/ABCE1 (endogenous) (from UniProt A4HZ70)
Leishmania infantum eukaryotic release factor 1 (eRF1) (from UniProt A4I2W3)
Leishmania infantum eukaryotic release factor 3 (eRF3) (from UniProt A4HV24)

These are yes or no findings as the source states them, for the method shown. In cells and extracts the contact can be indirect. These calls come from enrichment with a bait or labelling near it, and not all partners need be listed.
